No constants are given. Whether binding was seen depends on the method and setting. Binding seen in cells or lysates may run through a third protein. Some binding calls cover weakened binding; strength is not graded here.

The chains behind the UniProt entries cited, without tags or fusion partners.
UniProt P11387: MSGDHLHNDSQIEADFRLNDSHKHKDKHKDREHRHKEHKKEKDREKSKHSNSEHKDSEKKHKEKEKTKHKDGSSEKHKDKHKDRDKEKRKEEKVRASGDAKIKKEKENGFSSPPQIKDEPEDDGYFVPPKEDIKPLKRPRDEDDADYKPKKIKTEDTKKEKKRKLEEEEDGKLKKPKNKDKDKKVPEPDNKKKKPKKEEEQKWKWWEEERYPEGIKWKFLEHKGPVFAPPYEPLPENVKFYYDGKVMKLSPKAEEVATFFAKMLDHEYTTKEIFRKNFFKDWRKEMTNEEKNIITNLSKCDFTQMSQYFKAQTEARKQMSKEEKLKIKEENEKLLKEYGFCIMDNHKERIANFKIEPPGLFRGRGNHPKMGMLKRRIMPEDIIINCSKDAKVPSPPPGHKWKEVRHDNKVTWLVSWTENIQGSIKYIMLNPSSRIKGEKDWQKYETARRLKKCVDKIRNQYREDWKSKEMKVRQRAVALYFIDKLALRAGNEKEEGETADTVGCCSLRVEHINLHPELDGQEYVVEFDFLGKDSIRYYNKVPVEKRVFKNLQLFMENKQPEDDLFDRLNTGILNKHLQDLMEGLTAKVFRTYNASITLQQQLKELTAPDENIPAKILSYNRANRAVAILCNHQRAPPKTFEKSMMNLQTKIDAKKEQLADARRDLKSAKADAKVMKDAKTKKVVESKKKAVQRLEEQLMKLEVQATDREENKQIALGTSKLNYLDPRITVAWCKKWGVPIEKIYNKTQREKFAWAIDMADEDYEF
UniProt O00487: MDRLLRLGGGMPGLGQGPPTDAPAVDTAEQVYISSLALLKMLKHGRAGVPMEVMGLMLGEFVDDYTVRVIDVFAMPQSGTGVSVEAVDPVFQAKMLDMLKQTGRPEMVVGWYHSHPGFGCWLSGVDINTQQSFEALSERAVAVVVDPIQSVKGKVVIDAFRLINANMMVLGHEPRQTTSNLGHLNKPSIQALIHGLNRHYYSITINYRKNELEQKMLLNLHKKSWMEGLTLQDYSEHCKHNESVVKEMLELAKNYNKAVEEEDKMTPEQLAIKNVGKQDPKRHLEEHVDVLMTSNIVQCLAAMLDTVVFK
UniProt Q93009: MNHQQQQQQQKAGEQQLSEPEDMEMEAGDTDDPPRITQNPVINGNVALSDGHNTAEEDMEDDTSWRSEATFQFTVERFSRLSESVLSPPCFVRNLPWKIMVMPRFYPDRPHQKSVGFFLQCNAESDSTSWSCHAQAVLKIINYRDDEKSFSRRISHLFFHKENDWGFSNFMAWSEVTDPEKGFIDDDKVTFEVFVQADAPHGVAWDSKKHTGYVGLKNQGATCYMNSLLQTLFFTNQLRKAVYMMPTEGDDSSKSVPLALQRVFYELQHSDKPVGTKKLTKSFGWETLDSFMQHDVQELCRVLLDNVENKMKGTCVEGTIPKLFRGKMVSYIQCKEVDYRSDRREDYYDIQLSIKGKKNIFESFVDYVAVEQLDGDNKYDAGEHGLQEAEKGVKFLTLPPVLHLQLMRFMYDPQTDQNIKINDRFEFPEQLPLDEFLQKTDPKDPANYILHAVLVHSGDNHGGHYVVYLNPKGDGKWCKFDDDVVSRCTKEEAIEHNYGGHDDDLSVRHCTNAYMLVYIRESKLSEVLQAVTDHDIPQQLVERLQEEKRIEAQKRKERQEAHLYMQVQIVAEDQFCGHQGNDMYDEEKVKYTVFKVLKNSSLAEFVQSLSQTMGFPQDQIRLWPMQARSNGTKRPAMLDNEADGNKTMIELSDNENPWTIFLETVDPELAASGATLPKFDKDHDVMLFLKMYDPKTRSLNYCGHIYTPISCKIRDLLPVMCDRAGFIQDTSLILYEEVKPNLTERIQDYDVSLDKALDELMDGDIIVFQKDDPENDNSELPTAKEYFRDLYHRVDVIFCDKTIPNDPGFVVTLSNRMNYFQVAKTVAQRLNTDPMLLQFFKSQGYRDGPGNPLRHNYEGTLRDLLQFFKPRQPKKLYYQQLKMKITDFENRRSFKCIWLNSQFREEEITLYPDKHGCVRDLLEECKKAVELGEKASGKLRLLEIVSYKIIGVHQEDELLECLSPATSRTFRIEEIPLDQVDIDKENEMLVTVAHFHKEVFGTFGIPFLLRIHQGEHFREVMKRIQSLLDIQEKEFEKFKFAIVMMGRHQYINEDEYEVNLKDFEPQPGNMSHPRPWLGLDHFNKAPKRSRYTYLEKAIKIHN

Assay [1] concerns the target 6×His-tagged TOP1 (topoisomerase I) (human) (UniProt P11387). The assay is described as follows: proximity ligation; Duolink PLA in fixed, permeabilised transfected cells; cells treated with PARPi as well.
The target is the same in assay [2]. The experiment in a line: proximity ligation; Duolink PLA in fixed, permeabilised transfected cells; cells treated with CPT, PARGi or both.
The target is the same in assay [3]. The assay is described as follows: pull-down; His-tag pulldown with Ni-NTA agarose under native conditions from transfected HEK293 lysate treated with benzonase, 10 mM imidazole, overnight 4 °C; cells untreated or treated with CPT, PARGi, PARPi.
The target in assay [4] is PSMD14-FLAG (UniProt O00487). The assay is described as follows: co-IP; anti-FLAG M2 IP from transfected HEK293 lysate treated with benzonase, washed with RIPA buffer; cells untreated or treated with CPT (20 µM, 30 min).

Regarding “FLAG-USP7 (from UniProt Q93009 1-1102) (enzyme)”, the binding entry in assay [1] was “no binding (condition: cells treated with PARPi)”; in assay [2], “binds”; in assay [3] it was “binds”.

As for “TOP1 (topoisomerase I), endogenous (from UniProt P11387 1-765) (enzyme)”, the binding result in assay [4] was “binds”.

These data come from publication PMC8373905.
